Measurements taken from paper PMC12063704.
Results are given in words; binding and its absence hold for the method and conditions named. In cells and extracts the contact can be indirect. Some binding calls cover weakened binding; strength is not graded here.

By UniProt entry, the sequences of proteins in these tests, tags left out.
UniProt Q13206: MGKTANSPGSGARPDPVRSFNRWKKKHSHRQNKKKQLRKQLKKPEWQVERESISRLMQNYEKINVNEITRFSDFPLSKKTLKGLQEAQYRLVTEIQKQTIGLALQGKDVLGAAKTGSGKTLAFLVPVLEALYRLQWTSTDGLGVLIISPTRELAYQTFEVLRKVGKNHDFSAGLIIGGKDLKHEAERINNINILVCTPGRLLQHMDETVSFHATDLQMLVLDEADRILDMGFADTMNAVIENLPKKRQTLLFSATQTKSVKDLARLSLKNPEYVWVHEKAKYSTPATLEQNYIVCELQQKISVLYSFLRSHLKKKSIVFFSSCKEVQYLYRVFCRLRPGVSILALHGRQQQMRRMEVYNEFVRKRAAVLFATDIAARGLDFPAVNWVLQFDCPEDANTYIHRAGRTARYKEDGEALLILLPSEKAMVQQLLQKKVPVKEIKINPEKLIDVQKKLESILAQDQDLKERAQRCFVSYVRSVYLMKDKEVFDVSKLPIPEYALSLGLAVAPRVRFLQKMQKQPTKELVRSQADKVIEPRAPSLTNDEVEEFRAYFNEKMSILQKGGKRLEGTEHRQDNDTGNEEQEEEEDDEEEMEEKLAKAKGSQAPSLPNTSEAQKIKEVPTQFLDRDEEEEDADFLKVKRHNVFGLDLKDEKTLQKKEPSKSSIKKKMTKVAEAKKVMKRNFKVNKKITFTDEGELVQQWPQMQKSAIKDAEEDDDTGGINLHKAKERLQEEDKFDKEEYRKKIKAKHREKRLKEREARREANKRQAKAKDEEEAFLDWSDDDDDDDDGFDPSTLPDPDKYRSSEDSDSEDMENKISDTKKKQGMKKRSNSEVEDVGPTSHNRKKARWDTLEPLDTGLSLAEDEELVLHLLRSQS

Target: DEAD-box ATPase 10 (DDX10) (human (endogenous in SCC15)) (UniProt Q13206)
Assay: co-IP; endogenous proteins in SCC15 cell lysate; IP/Co-IP kit, protein A/G magnetic beads preincubated with the primary antibody, 4 °C; washed with lysis buffer, eluted in SDS loading buffer, detected by Western blot; which antibody precipitated is not stated

B1: Rab27b (protein, UniProt O00194 1-218)
chain: MTDGDYDYLIKLLALGDSGVGKTTFLYRYTDNKFNPKFITTVGIDFREKRVVYNAQGPNGSSGKAFKVHLQLWDTAGQERFRSLTTAFFRDAMGFLLMFDLTSQQSFLNVRNWMSQLQANAYCENPDIVLIGNKADLPDQREVNERQARELADKYGIPYFETSAATGQNVEKAVETLLDLIMKRMEQCVEKTQIPDTVNGGNSGNLDGEKPPEKKCIC
B1 was tested, and the binding was “binds”.
